PubChem BioAssay AID1259254 | NCATS, 2017

- Assay: 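Genome-wide screen for genes that prevent DNA re-replication in cancer cells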 (primary screen)
- Cells: human HCT116 colorectal cancer cells
- Reagents: single siRNA against human genes
- Duration: 3 days
- Measured: 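Imaged Hoechst DNA stain sorts each cell into a cycle phase by DNA amount; per plate, G2 fraction set to 0% for non-targeting and 100% for GMNN siRNA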
- Scale: G2 robust z-score and G2 cells, % of GMNN control: higher = more G2 cells, more excess DNA replication; raw share of cells in G2: higher = larger share of cells with G2 DNA content
- Active means: 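Active siRNAs have a G2 robust z of 5 or more median absolute deviations over the median, which in these data means about 38% or higher of GMNN control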
Here is an unselected part of about 59,000 reagents. About 1,550 of them (2.6%) count as active. 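G2 share is only a proxy for re-replication; each gene was hit by three separate siRNAs, and active genes were retested.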 Raw values are not corrected between plates. Reagents against one gene are numbered here. Not stated in the record: the amount of reagent.

target	reagent	G2 robust z-score	G2 cells, % of GMNN control	raw share of cells in G2 (%)	outcome
LINC00900	1	-1.05	-4.43	2.03	inactive
LINC00900	2	-0.282	0.984	3.42	inactive
LINC00900	3	-0.577	-1.09	2.93	inactive
RBPMS	1	4.58	35.2	15.2	inactive
RBPMS	2	-0.753	-2.33	5.56	inactive
RBPMS	3	-1.28	-6.03	3.07	inactive
WBP11P3	1	-1.31	-6.28	1.22	inactive
WBP11P3	2	0.447	6.11	5.86	inactive
WBP11P3	3	1.27	11.9	7.06	inactive
FCGR2A	1	-1.5	-7.59	2.38	inactive
FCGR2A	2	-0.617	-1.37	3.17	inactive
FCGR2A	3	0.322	5.24	7.14	inactive
HELQ	1	0.972	9.8	10.2	inactive
HELQ	2	1.34	12.4	10.3	inactive
HELQ	3	1.05	10.4	8.4	inactive
CPLANE2	1	1.31	12.1	9.87	inactive
CPLANE2	2	2.18	18.3	12.8	inactive
CPLANE2	3	-0.414	0.0517	2.71	inactive

In a second layout: entries from further up.
target,reagent,G2 robust z-score,"G2 cells, % of GMNN control",raw share of cells in G2 (%),outcome
RBPMS,3,-1.28,-6.03,3.07,inactive
WBP11P3,1,-1.31,-6.28,1.22,inactive
WBP11P3,2,0.447,6.11,5.86,inactive
WBP11P3,3,1.27,11.9,7.06,inactive
FCGR2A,1,-1.5,-7.59,2.38,inactive
FCGR2A,2,-0.617,-1.37,3.17,inactive
FCGR2A,3,0.322,5.24,7.14,inactive

The list goes on.
target	reagent	G2 robust z-score	G2 cells, % of GMNN control	raw share of cells in G2 (%)	outcome
CCL1	1	-1.01	-4.17	4.28	inactive
CCL1	2	2.52	20.7	11.6	inactive
CCL1	3	0.793	8.55	6.79	inactive
FAM222A	1	-1.14	-5.07	1.93	inactive
FAM222A	2	-0.518	-0.677	2.79	inactive
FAM222A	3	-0.107	2.22	3.63	inactive
MED4	1	-0.705	-1.99	5.26	inactive
MED4	2	-1.02	-4.21	2.79	inactive
MED4	3	-0.0269	2.78	4.9	inactive
PRKCE	1	0.957	9.7	8.81	inactive
PRKCE	2	-1.12	-4.92	3.75	inactive
PRKCE	3	-0.581	-1.12	3.63	inactive
LOC653303	1	4.15	32.2	12.3	inactive
LOC653303	2	0.661	7.62	6.64	inactive
LOC653303	3	-0.34	0.578	3.39	inactive
TMSB4X	1	1.76	15.4	12	inactive
TMSB4X	2	0.905	9.33	7.59	inactive
TMSB4X	3	-0.198	1.57	3.9	inactive
FAM194C	1	-0.352	0.493	4.27	inactive
FAM194C	2	-0.533	-0.784	3.22	inactive
FAM194C	3	-0.261	1.13	2.75	inactive
PDPR	1	-0.306	0.812	4.67	inactive
PDPR	2	7.51	55.8	24.4	active
PDPR	3	8.49	62.7	33.9	active
PDE6B	1	0.415	5.89	6.71	inactive
PDE6B	2	0.142	3.97	5.5	inactive
PDE6B	3	2.52	20.7	9.73	inactive
JPT1	1	4.84	37	18	inactive
JPT1	2	-0.546	-0.877	4.22	inactive
JPT1	3	4.6	35.3	14.4	inactive
